# Values quoted from earlier work as cited in paper PMC8604667 (International Journal of Pharmaceutics: X, 2021).
# Details: ref Saetern et al., 2004
smiles,measurement,value
"CC[C@@]1(O)C(=O)OCc2c1cc1n(c2=O)Cc2cc3ccccc3nc2-1 [camptothecin, Camptothecin]",aqueous solubility,approximately 4 μg/mL
